In PMC6030064:
No constants are given. Whether binding was seen depends on the method and setting. For some of these results: In cells and extracts the contact can be indirect. Some entries that bind do so weakly or less than the wild type. For some of these results: Tags and fused reporters may be left off the sequences shown.

Chains of the proteins cited; added tags and fusions are not shown. Lines headed by an entry give the natural chain unless they say otherwise; changes in a name come on top.
UniProt O15047: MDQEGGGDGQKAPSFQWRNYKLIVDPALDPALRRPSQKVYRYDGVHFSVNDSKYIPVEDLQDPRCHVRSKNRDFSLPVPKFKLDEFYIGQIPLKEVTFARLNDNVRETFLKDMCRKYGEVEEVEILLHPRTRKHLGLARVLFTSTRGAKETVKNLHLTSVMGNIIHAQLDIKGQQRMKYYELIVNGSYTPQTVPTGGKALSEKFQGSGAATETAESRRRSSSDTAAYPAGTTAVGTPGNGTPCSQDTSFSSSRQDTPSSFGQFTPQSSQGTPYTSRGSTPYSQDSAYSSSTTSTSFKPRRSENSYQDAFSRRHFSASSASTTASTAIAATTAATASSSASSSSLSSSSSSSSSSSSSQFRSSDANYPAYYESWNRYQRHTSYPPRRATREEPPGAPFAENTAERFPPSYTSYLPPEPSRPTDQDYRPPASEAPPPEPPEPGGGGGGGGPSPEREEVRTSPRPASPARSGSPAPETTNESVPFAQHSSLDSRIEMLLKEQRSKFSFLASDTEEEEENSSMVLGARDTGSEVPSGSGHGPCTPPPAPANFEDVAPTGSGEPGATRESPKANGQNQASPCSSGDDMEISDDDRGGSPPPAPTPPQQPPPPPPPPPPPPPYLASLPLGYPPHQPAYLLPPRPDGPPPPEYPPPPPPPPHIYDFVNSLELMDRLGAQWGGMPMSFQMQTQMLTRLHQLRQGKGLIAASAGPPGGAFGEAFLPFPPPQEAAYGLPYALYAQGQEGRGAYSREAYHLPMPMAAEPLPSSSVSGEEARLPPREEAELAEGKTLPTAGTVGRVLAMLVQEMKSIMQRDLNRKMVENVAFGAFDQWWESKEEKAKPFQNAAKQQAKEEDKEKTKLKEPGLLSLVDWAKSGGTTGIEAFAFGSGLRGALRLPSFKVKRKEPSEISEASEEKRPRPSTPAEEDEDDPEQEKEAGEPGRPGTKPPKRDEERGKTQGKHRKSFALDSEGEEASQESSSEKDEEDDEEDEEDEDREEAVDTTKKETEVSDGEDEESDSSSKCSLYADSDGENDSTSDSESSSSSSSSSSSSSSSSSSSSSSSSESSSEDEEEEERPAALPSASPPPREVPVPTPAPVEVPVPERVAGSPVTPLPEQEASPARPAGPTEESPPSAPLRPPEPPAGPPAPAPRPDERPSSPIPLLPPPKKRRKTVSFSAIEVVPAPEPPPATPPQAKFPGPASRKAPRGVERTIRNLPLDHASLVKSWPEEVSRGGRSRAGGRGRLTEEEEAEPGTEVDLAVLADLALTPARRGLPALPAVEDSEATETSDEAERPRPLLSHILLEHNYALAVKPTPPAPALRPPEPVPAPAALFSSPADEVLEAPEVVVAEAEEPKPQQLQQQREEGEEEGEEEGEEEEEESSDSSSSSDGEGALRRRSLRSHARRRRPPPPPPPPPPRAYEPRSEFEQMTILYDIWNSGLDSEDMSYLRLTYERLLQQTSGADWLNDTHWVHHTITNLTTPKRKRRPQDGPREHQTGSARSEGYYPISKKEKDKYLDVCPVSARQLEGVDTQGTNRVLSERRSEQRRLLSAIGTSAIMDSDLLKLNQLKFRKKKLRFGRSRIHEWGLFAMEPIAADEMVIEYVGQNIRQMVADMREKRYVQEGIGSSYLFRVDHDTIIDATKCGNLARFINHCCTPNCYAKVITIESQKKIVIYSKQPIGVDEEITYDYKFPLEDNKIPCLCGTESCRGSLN
UniProt P48432: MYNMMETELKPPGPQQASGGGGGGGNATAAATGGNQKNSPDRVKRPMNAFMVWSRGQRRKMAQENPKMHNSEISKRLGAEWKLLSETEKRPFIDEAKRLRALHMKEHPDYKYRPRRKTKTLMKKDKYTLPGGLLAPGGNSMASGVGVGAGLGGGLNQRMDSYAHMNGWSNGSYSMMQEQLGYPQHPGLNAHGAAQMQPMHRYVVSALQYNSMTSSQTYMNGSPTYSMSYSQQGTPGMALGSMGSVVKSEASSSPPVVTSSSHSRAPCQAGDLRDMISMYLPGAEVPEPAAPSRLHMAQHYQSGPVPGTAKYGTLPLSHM

Legend:
recombinant GST-Uhrf1 = molecular target: T1, recombinant GST-Uhrf1 (UniProt Q8VDF2); assay: pull-down; purified GST-Uhrf1 incubated with SETD1A-198H (0.15 and 0.3 ug) in 25 mM HEPES, 100 mM NaCl, 0.02% Triton X-100, 5% glycerol, 5% BSA, 1 mM DTT; Uhrf1 pulled down with an Uhrf1 antibody and agarose beads; western blot with a GST antibody; both purified
T1 sequence: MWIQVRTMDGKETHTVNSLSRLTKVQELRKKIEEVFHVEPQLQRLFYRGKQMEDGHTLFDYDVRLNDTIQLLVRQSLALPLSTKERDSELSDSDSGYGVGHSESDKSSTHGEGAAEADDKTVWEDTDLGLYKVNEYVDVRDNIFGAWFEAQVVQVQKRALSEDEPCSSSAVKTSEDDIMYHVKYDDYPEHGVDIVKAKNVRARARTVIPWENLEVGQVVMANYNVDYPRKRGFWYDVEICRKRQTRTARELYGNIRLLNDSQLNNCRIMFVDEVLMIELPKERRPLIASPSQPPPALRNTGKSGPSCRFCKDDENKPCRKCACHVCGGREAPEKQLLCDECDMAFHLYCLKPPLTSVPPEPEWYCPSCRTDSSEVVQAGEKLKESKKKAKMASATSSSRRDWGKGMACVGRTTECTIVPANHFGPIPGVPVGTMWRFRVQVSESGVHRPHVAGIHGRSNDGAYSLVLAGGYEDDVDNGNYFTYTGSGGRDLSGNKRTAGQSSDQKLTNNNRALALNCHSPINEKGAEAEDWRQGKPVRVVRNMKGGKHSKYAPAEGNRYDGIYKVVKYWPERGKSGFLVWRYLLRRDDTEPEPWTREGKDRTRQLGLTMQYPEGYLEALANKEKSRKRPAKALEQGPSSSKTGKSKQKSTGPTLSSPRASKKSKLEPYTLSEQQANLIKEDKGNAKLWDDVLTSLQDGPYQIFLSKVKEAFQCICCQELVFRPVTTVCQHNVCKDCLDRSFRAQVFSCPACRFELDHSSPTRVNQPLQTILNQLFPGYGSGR

[1] = molecular target: T2, Uhrf1 (co-IP of Fig. 3c and Fig. 5a) (UniProt Q8VDF2); assay: co-IP; series of SETD1A constructs with given deletions, co-IP with Uhrf1 (Fig. 3c); cells not given
T2 sequence: T1 sequence

[2] = molecular target: T2, Uhrf1 (co-IP of Fig. 3c and Fig. 5a); assay: co-IP; co-IP of Uhrf1 with core pluripotent factors (Fig. 5a); cells not given
[3] = molecular target: T2, Uhrf1 (co-IP of Fig. 3c and Fig. 5a); assay: as above; remark: listed apart in the source

GST-tagged recombinant human partial SETD1A protein (SETD1A-198H, amino acid 1418-end) (from UniProt O15047 1418-1707) (domain or fragment)
binding (recombinant GST-Uhrf1): binds

SETD1A (parent of the deletion constructs of Fig. 3c) (from UniProt O15047 1-1707) (enzyme)
binding [1]: binds

Sox2 (from UniProt P48432 1-319)
binding [2]: binds weakly

B1: Nanog (protein, UniProt Q80Z64 1-305)
chain: MSVGLPGPHSLPSSEEASNSGNASSMPAVFHPENYSCLQGSATEMLCTEAASPRPSSEDLPLQGSPDSSTSPKQKLSSPEADKGPEEEENKVLARKQKMRTVFSQAQLCALKDRFQKQKYLSLQQMQELSSILNLSYKQVKTWFQNQRMKCKRWQKNQWLKTSNGLIQKGSAPVEYPSIHCSYPQGYLVNASGSLSMWGSQTWTNPTWSSQTWTNPTWNNQTWTNPTWSSQAWTAQSWNGQPWNAAPLHNFGEDFLQPYVQLQQNFSASDLEVNLEATRESHAHFSTPQALELFLNYSVTPPGEI
binding [3]: no binding
